Measurements: the supplement of paper PMC4256282, “Profound Activity of the Anti-cancer Drug Bortezomib against Echinococcus multilocularis Metacestodes Identifies the Proteasome as a Novel Drug Target for Cestodes” (PLoS Neglected Tropical Diseases, 2014)
Structures can show the parent of a compound that is named as a salt. This is one part of the list. Single values are uncertain, as repeats are few or missing.

What follows are compounds tested on Echinococcus multilocularis metacestodes (assay: vesicle damage (PGI release) relative to positive control DB1127 at 20 µM, DMSO subtracted; higher = more parasite damage). Conditions: treatment time 5 days.
Compound N[C@@H]1CCCC[C@H]1N.O=C([O-])C(=O)[O-].[Pt+2] [Eloxatin] has a vesicle damage of 10.4%. In the case of N[C@@H](CSCCCO)C(=O)O [Fudosteine], the vesicle damage is reported as 1.07%. For CN(C)CCOC(c1ccccc1)c1ccccc1 [Diphenhydramine hcl], the vesicle damage was -14.9%. Compound CN1C2CCCC1CC(NC(=O)c1nn(C)c3ccccc13)C2 (centres undefined) [Granisetron Hydrochloride] has a vesicle damage of 0.95%. Compound CO[C@@H]1[C@@H](OC(N)=O)[C@@H](O)[C@H](Oc2ccc3c(O)c(NC(=O)c4ccc(O)c(CC=C(C)C)c4)c(=O)oc3c2C)OC1(C)C [Novobiocin sodium] has a vesicle damage of 4.42%. Compound Cc1cc2c(s1)Nc1ccccc1N=C2N1CCN(C)CC1 [Olanzapine] has a vesicle damage of -0.121%. Work on Cn1c(CNc2ccc(C(=N)N)cc2)nc2cc(C(=O)N(CCC(=O)O)c3ccccn3)ccc21 yielded a vesicle damage of -0.928%. COC(=O)Nc1nc2cc(Sc3ccccc3)ccc2[nH]1 [Fenbendazole] gave a vesicle damage of 7.35%. Nc1nc2c(ncn2COCCO)c(=O)[nH]1 [Acyclovir] was tested, and the vesicle damage was -13.6%. Work on CCOC(=O)c1ncn2c1CN(C)C(=O)c1cc(F)ccc1-2 [Flumazenil] yielded a vesicle damage of -0.713%. In the case of N#CC1(c2ccc(NC(=O)c3cccnc3NCc3ccncc3)cc2)CCCC1 [Apatinib], the vesicle damage is reported as 2.22%. CNS(=O)(=O)Cc1ccc2[nH]cc(CCN(C)C)c2c1 [Sumatriptan succinate] was tested, and the vesicle damage was -3.44%. CC(=O)[C@]1(O)Cc2c(O)c3c(c(O)c2[C@@H](O[C@H]2C[C@H](N)[C@H](O)[C@H](C)O2)C1)C(=O)c1ccccc1C3=O [Idarubicin HCl] gave a vesicle damage of 6.77%. In the case of CC(=O)NC[C@H]1CN(c2ccc(N3CCOCC3)c(F)c2)C(=O)O1 [Linezolid], the vesicle damage is reported as -2.39%. For O=c1oc2cc(O)ccc2s1 [Tioxolone], the vesicle damage was -0.785%. Work on O=C(O)CSCC(=O)NC1CCSC1=O (centres undefined) [Erdosteine] yielded a vesicle damage of 1.96%. Compound CN(C)/N=N/c1[nH]cnc1C(N)=O [Dacarbazine] has a vesicle damage of 0.485%. For Nc1cc(C(Cl)=C(Cl)Cl)c(S(N)(=O)=O)cc1S(N)(=O)=O [Clorsulon], the vesicle damage was 6.5%. Work on CNC(=O)c1ccccc1Sc1ccc2c(/C=C/c3ccccn3)n[nH]c2c1 [Axitinib] yielded a vesicle damage of 155%. For Cc1nc(-c2ccc(OCC(C)C)c(C#N)c2)sc1C(=O)O [Febuxostat], the vesicle damage was 10.1%. CN(C)C(=O)C(CCN1CCC(O)(c2ccc(Cl)cc2)CC1)(c1ccccc1)c1ccccc1 [Loperamide hydrochloride] gave a vesicle damage of 1.33%. C[C@]12CCC(=O)C=C1[C@@H]1C[C@@H]1[C@H]1[C@@H]3[C@@H]4C[C@@H]4[C@@]4(CCC(=O)O4)[C@@]3(C)CC[C@@H]12 [Drospirenone] showed a vesicle damage of 16.8%. For COc1ccc2c(c1)c(CC(=O)O)c(C)n2C(=O)c1ccc(Cl)cc1 [Indomethacin], the vesicle damage was -15.1%. In the case of N=C(N)NC(=N)N1CCOCC1 [Moroxydine hydrochloride], the vesicle damage is reported as -0.115%. CNC[C@H](O)c1ccc(O)c(O)c1 [Epinephrine bitartrate] showed a vesicle damage of -9.8%. O=c1[nH]cnc2c1ncn2[C@H]1CC[C@@H](CO)O1 [Didanosine] gave a vesicle damage of -2.52%. Work on Nc1nc(F)nc2c1ncn2[C@@H]1O[C@H](COP(=O)(O)O)[C@@H](O)[C@@H]1O [Fludarabine Phosphate] yielded a vesicle damage of 2.09%. CCOC(=O)N1CCC(=C2c3ccc(Cl)cc3CCc3cccnc32)CC1 [Loratadine] was tested, and the vesicle damage was -2.06%. For CCC(C)n1ncn(-c2ccc(N3CCN(c4ccc(OCC5COC(Cn6cncn6)(c6ccc(Cl)cc6Cl)O5)cc4)CC3)cc2)c1=O (centres undefined) [Itraconazole], the vesicle damage was 6.17%. Compound Cc1ccc(NC(=O)c2ccc(CN3CCN(C)CC3)cc2)cc1Nc1nccc(-c2cccnc2)n1 [Imatinib Mesylate] has a vesicle damage of -3.05%. CC(=O)O[C@H]1C(=O)[C@@]2(C)[C@H]([C@H](OC(=O)c3ccccc3)[C@]3(O)C[C@H](OC(=O)[C@H](O)[C@@H](NC(=O)c4ccccc4)c4ccccc4)C(C)=C1C3(C)C)[C@]1(OC(C)=O)CO[C@@H]1C[C@@H]2O [Paclitaxel] gave a vesicle damage of 1.2%. CC(=O)N1CCN(c2ccc(OCC3COC(Cn4ccnc4)(c4ccc(Cl)cc4Cl)O3)cc2)CC1 (centres undefined) [Ketoconazole] was tested, and the vesicle damage was 2.96%. Compound C[C@]12C=CC(=O)C=C1CC[C@H]1[C@@H]3C[C@@H](O)[C@](O)(C(=O)CO)[C@@]3(C)C[C@H](O)[C@@]12F [Triamcinolone] has a vesicle damage of -9.45%. For Nc1[nH]cnc2ncnc1-2 [Adenine hydrochloride], the vesicle damage was -1.48%.
